The record followed here is patent US20030124644.

In series [1] the test system is T1, ScbR (Streptomyces coelicolor).
T1 sequence: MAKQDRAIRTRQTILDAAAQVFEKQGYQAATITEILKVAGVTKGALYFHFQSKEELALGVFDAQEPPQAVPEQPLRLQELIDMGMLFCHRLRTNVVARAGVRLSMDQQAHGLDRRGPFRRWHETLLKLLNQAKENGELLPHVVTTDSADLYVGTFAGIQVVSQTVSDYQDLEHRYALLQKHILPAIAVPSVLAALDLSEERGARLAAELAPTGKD
As to the kind of experiment: footprint. Conditions: DNase I, protein in a lysate after overexpression, label: 5'-32P.

The test system is the same in series [2]. The experiment in a line: EMSA. As to conditions: HEPES pH 7.5, KCl, calf thymus DNA, room temp; competed by excess unlabelled fragment; binding markedly reduced by 1 ug SCB1, little or no effect of its stereoisomers; protein in a lysate after overexpression; label: 5'-32P.

For at least one entry, the source does not settle the construct or the ends of the probe. Results from cells or extracts need not show a direct contact. For part of these data: A weaker result is weaker than the reference pair of the same experiment. Where a protein sequence is shown, tags need not be part of it.

Turning to “CGTTAAGATACAGACTGAGCGGTTTTTTTT (double strand) [ScbR binding site No.1 (upstream of scbA)]”, in series [1] (stronger affinity than site No.2 by extract dilution), the binding result is listed as “binds”. Consider “GGAACCGGCAATGCGGTTTGTTCGATCGAGTTGGCATCGGACGCAGAATTGATCAAAACTACTGCTTCGGGCATGGGTCCCCCCCAGGAATCATGTGATGCCGAGCTGTTCTGTATGCGCGAACGTTAAGATACAGACTGAGCGGTTTTTTTT (double strand)”, for which, in series [2], the binding result is “binds”.

Consider “GGAACCGGCAATGCGGTTTGTTCGATCG (double strand) [ScbR binding site No.2 (upstream of scbR)]”, for which the binding result in series [1] (protected, lower affinity than site No.1) was “binds more weakly”.
